Data from patent US7592341B2, “Peptide-enhanced corneal drug delivery” (Kansas State University Research Foundation, priority 2004, dated 2009).

Tested on: NC-1059
Assay: Quantitative isothermal calorimetry of dye binding to NC-1059
Details: ΔH of injectant vs molar ratio dye/peptide; 5 mM NaF, 15 mM CF

Substance | best-fit binding model of dye to NC-1059
5(6)-Carboxy Fluorescein [CF] | single binding site
Sodium Carboxy Fluorescein [NaF] | two-site model
